{"source": "patent US4409208A", "about": "“GnRH antagonists” (The Salk Institute for Biological Studies, priority 1981, dated 1983)", "key": {"[1]": {"system": "dissociated rat pituitary cells", "assay": "In vitro inhibition of GnRH-induced LH release, rat LH radioimmunoassay", "assay_type": "cell-based", "settings": "3 nanomolar GnRH; dissociated rat pituitary cells cultured 4 days"}, "[2]": {"system": "ovulation in mature female Sprague-Dawley rats", "assay": "In vivo prevention of ovulation in female rats, peptide injected in corn oil at noon on the day of proestrous", "set-up": "species or system rat"}}, "note": "Part of at least one peptide drawing is inferred or uncertain, most often the ends. Where a SMILES comes first, the peptide text is derived from it. [ ]: non-standard residue; d: D form. dPhe(4-F) = N[C@H](Cc1ccc(F)cc1)C(=O)O; d2Nal = N[C@H](Cc1ccc2ccccc2c1)C(=O)O; ΔPro = O=C(O)[C@@H]1C=CCN1"}
{"smiles": "CC(=O)N1CC=C[C@H]1C(=O)N[C@H](Cc1ccc(F)cc1)C(=O)N[C@H](Cc1c[nH]c2ccccc12)C(=O)N[C@@H](CO)C(=O)N[C@@H](Cc1ccc(O)cc1)C(=O)N[C@H](Cc1ccc2ccccc2c1)C(=O)N[C@@H](CC(C)C)C(=O)N[C@@H](CCCNC(=N)N)C(=O)N1CCC[C@H]1C(=O)NCC(N)=O", "note": "[Peptide 1, [Ac-dehydro Pro^1,4-F-D-Phe^2,D-Trp^3, β-(2-naphthyl)-D-Ala^6]-GnRH] (Ac-[ΔPro][dPhe(4-F)][dW]SY[d2Nal]LRPG-NH2)", "values": [{"measurement": "In Vitro ICR50: molar concentration ratio of test peptide to GnRH (antagonist/GnRH) required to reduce LH released to 50 percent of the control value", "setting": "[1]", "result": 0.005}, {"measurement": "In Vivo Rats Ovulating", "setting": "[2]; 5 μg of peptide in corn oil, noon of proestrous, ovulating/treated", "result": "none of them ovulated"}, {"measurement": "Effectiveness to prevent ovulation at a dose of one milligram", "setting": "[2]; dose of one milligram, female rats", "result": "totally effective"}, {"measurement": "Effectiveness to prevent ovulation of female rats at a very low dosage", "setting": "[2]; very low dosage", "result": "significantly effective"}]}
